According to publication PMC4605787:
These are yes or no findings as the source states them, for the method shown. Binding seen in cells or lysates may run through a third protein. Some binding calls cover weakened binding; strength is not graded here.

The chains behind the UniProt entries cited, without tags or fusion partners.
UniProt P47197: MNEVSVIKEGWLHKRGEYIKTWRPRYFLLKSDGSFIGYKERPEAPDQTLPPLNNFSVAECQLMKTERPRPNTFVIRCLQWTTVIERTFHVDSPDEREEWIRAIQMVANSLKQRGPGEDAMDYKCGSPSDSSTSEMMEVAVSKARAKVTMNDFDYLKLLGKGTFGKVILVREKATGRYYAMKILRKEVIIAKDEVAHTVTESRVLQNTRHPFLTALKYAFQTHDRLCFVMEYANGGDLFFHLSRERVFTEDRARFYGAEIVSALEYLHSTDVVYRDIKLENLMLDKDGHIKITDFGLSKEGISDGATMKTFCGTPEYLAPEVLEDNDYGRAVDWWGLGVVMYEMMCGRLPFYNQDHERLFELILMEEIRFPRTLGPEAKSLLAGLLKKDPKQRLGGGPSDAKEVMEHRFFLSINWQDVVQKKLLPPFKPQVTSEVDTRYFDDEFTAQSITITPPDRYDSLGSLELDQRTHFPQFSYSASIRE
UniProt Q62868: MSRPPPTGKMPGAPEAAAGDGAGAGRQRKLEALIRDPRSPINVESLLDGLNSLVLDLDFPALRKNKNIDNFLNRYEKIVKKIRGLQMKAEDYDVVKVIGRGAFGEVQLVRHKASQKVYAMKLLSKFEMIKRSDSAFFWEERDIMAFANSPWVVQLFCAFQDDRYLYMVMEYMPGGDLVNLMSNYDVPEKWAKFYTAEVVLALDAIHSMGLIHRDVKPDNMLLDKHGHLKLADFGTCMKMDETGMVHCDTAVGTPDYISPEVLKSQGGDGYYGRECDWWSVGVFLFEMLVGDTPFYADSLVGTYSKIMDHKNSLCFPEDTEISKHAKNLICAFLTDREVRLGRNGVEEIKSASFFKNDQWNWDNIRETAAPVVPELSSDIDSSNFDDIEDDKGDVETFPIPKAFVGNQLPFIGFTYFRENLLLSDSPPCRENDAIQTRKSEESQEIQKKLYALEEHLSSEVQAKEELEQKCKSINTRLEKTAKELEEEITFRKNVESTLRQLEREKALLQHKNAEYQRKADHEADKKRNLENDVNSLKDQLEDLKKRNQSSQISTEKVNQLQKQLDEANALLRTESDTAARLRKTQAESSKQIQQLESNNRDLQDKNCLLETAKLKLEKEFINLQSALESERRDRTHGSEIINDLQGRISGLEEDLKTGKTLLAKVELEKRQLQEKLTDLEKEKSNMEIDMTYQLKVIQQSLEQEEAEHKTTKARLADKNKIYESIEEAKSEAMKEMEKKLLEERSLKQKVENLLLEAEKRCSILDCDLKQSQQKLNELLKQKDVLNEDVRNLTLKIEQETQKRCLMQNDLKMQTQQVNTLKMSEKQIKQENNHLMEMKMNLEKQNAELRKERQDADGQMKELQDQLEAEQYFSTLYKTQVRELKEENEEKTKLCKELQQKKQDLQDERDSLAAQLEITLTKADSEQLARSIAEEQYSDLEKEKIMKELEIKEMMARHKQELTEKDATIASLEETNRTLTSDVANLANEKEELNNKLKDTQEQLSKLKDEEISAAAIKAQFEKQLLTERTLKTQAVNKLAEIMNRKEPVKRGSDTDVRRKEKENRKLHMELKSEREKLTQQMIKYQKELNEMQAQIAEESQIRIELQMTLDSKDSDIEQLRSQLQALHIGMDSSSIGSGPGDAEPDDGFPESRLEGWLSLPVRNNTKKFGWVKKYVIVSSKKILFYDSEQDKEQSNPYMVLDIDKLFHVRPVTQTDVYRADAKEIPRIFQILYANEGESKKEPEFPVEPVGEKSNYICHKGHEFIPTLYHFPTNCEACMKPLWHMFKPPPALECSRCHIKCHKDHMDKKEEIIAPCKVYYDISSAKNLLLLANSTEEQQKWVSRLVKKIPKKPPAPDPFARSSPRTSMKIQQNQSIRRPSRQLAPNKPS

Target: Akt2 (rat (endogenous in L6 myoblasts)) (UniProt P47197)
Assay: co-IP; endogenous Akt2 immunoprecipitated with anti-Akt2 (NIgG as control) from 1 mg L6 myoblast lysate; cells serum-starved 4 h, with or without 100 nM insulin for 15 min at 37°C; western blot with anti-Akt2 and anti-ROCK2

binding: binds
Substance: Rho-associated protein kinase 2 (from UniProt Q62868 1-1388)
